PubChem BioAssay AID652243 – Drosophila RNAi Screening Center | 2013

- Test: 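Fly regulators of androgen-dependent reporter output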 (primary screen)
- Cell system: Drosophila S2R+ cells
- Reagent: long dsRNA against Drosophila genes
- Duration: 72 h (48 h, then 24 h hormone)
- Treatment: synthetic androgen R1881 at 10 nM for 24 h
- Measurement: 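Firefly light from an androgen-responsive reporter and Renilla control light per well, raw and unnormalised, for each of two replicates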
- Direction: firefly reporter light: higher = more light from androgen-responsive reporter; Renilla control light: higher = more constitutive control signal (cell number, transfection)
- Rule for the call: 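Hit when the log firefly-to-Renilla ratio dropped or increased by a fixed fold versus the mean of GFP or LacZ controls across duplicate plates; lowering cut given as 1.5 and as 3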
- Calls: active = hit: reporter lowered or raised; inactive = no hit
The deposit covers about 24,000 reagents; shown is an unselected part of those with a known target gene and a result. Of all reagents, 246 (1%) are marked active. 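Plates not normalised; calls are printed but the firefly/Renilla ratio behind them is not deposited; fold cut for lowering reported inconsistently.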 The raw values are shown without normalisation. Reagents against one gene are numbered here. The record does not give: the amount of reagent.

After knock-down of Trf (TBP-related factor) the results were firefly reporter light, replicate 1 = 1.86e5; firefly reporter light, replicate 2 = 2.74e5; Renilla control light, replicate 1 = 1.50e6; Renilla control light, replicate 2 = 2.11e6; inactive. With knock-down of CG17294 the results were firefly reporter light, replicate 1 = 1.70e6; firefly reporter light, replicate 2 = 1.43e6; Renilla control light, replicate 1 = 2.92e6; Renilla control light, replicate 2 = 2.44e6; inactive. With knock-down of Cad96Cb (Cadherin 96Cb) #1, the record shows firefly reporter light, replicate 1 = 1.32e5; firefly reporter light, replicate 2 = 1.48e5; Renilla control light, replicate 1 = 1.78e6; Renilla control light, replicate 2 = 1.55e6; inactive. With knock-down of Cad96Cb (Cadherin 96Cb) #2, the record shows firefly reporter light, replicate 1 = 1.69e5; firefly reporter light, replicate 2 = 2.43e5; Renilla control light, replicate 1 = 2.54e6; Renilla control light, replicate 2 = 2.17e6; inactive. Cad96Cb (Cadherin 96Cb) #3 showed firefly reporter light, replicate 1 = 4.48e5; firefly reporter light, replicate 2 = 4.60e5; Renilla control light, replicate 1 = 1.28e6; Renilla control light, replicate 2 = 1.32e6; inactive. Depletion of Pus10 (Pseudouridine synthase 10) came out at: firefly reporter light, replicate 1 = 1.09e6; firefly reporter light, replicate 2 = 9.76e5; Renilla control light, replicate 1 = 3.25e6; Renilla control light, replicate 2 = 1.70e6; inactive.

Depletion of CR33929 (pseudo) gave: firefly reporter light, replicate 1 = 4.49e5; firefly reporter light, replicate 2 = 3.92e5; Renilla control light, replicate 1 = 1.44e6; Renilla control light, replicate 2 = 1.73e6; inactive. Knock-down of Eip63F-1 (Ecdysone-induced protein 63F 1) #1 resulted in: firefly reporter light, replicate 1 = 2.41e5; firefly reporter light, replicate 2 = 2.52e5; Renilla control light, replicate 1 = 2.69e6; Renilla control light, replicate 2 = 3.50e6; inactive. Depletion of Eip63F-1 (Ecdysone-induced protein 63F 1) #2 gave: firefly reporter light, replicate 1 = 5.27e5; firefly reporter light, replicate 2 = 4.56e5; Renilla control light, replicate 1 = 6.06e5; Renilla control light, replicate 2 = 4.53e5; inactive. For btl (breathless) #1, the values are firefly reporter light, replicate 1 = 2.51e5; firefly reporter light, replicate 2 = 1.93e5; Renilla control light, replicate 1 = 1.39e6; Renilla control light, replicate 2 = 1.28e6; inactive. Knock-down of btl (breathless) #2 gave: firefly reporter light, replicate 1 = 5.60e5; firefly reporter light, replicate 2 = 8.60e5; Renilla control light, replicate 1 = 1.72e6; Renilla control light, replicate 2 = 2.02e6; inactive. Against btl (breathless) #3 the deposit lists inactive.

Against CG17032 the deposit lists firefly reporter light, replicate 1 = 1.91e5; firefly reporter light, replicate 2 = 1.09e5; Renilla control light, replicate 1 = 1.94e6; Renilla control light, replicate 2 = 1.56e6; inactive. After knock-down of Uggt (UDP-glucose-glycoprotein glucosyltransferase), the screen gave firefly reporter light, replicate 1 = 28648; firefly reporter light, replicate 2 = 21155; Renilla control light, replicate 1 = 3.66e5; Renilla control light, replicate 2 = 2.56e5; inactive.

Laid out differently: entries from further up
gene knocked down	dsRNA no.	firefly reporter light, replicate 1	firefly reporter light, replicate 2	Renilla control light, replicate 1	Renilla control light, replicate 2	Call
btl (breathless)	3					inactive
CG17032	1	1.91e5	1.09e5	1.94e6	1.56e6	inactive
